Results reported in PMC8042123.
No constants are given. Whether binding was seen depends on the method and setting. In cells and extracts the contact can be indirect. Sequences can lack the tags named with a protein.

Amino acid sequences for entries named in this document (tags omitted). A change or cut given only in a name is not applied to a line headed by its entry.
UniProt Q96524: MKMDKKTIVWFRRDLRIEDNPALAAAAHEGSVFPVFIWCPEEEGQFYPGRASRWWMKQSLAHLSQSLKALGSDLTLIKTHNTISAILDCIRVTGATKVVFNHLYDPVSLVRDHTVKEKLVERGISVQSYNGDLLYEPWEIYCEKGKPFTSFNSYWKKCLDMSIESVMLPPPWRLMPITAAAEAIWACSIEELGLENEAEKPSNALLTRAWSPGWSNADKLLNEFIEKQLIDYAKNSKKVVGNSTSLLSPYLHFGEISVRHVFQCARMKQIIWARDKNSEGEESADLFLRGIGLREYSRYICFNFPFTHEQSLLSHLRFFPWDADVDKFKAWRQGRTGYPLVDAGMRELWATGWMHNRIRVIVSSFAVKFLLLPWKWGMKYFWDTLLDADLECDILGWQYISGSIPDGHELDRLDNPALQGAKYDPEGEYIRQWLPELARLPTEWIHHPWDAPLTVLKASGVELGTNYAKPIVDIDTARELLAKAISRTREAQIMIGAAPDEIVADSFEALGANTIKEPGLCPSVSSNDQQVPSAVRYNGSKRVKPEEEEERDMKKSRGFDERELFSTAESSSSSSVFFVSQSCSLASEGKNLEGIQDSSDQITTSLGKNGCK

What was measured:
Test in all cases: co-IP; HEK293T cells co-transfected (with PPK1, PPK1^D267N or SPA1 as indicated), blue light 100 μmol m^-2 s^-1 for 2 h; lysis in 1% Brij buffer, Anti-FLAG M2 affinity gel 4 °C 2 h, elution with 3xFlag peptide, immunoblot
[1] = molecular target: CRY2^P532L, Flag-tagged, unphosphorylated (Arabidopsis thaliana) (UniProt Q96524)
[2] = molecular target: Flag-CRY2^D387A (Arabidopsis thaliana) (UniProt Q96524)
[3] = molecular target: CRY2^P532L, Flag-tagged, phosphorylated (co-expressed with PPK1, blue light) (Arabidopsis thaliana) (UniProt Q96524)

- binding [1]: no binding
- binding [2]: no binding
- binding [3]: no binding
B1: Myc-SPA1 (protein, UniProt Q9SYX2 1-1029)
chain: MPVMERVAEETVATNNIQLKARVDDVPCNKLDARHNDMVIQSETANSDCPGSSAHRNVDLTKPPPPEEAAGAKLSVEELTLGNYRIVQGSNNTNVDSPRAGKFEHLYRLARGSAFRAGDGDLDSQPRDMDQMLSRIRQQLAGAPSERQNLKPFMSRRSDQNLEAFSERLRAAGENSIMNAPALISEGVQMKTPVSSSNFSQLLLKRAMKGKGVVGKNQETPPEFVSDQDLGSKEKKLDISKSPTPHDVLPLKSSPKGNGMVSHGDGNHSKSSIGISLREFLRSSYAKREKRHGLCLFRQLVELVDSAHSKRLFLLDLRPSLFTLVPSKKLRYIGNFGKNDLESDVDEDLNRRRPVVEESSSGGRDSKKRKMDLHLNSPGNQLQATSTGRPFKRKSPVIDLNMVDARNPDSCELQQQDYIKNLSVSSVSRKQSMSTWLEEQWYTCPEEINGEDIGEKSNIYALGVLLFELLCHCESGEMHAAMMADLRHRILPPTFLSKYPKEAGFCLWLLHPEPSSRPSARDILKSELICEDDSVKSTAAAEEISELLLHFLSSLEVQKKKKASKLLQDIQTLEDDIKEAERRYSSNVSLVRSHGAIEKRVQSSPLDEHCTTSSALFVPTANTDRLMSNIRQLEDAYFFMRSQINLSSSAATARSDKTLKDRDRCSENQNENQDMSTKGKSSDQLEVFFEGLCKFARYSKFETCGTIRSGDLLNSASVVCSLSFDPDEEHIAAAGISKKIKIFDFNAFMNESVGVHYPLVEMVNKSKLSCVCWNSYIKNYLASTDYDGVVQIWDAGTGQGFSQYTEHQKRAWSVDFSPSDPTKFVSGSDDCSVKLWSINEKRSLGTIWSPANVCCVQFSSYSNHLLAFGSADYKVYCYDLRYVKTPWCTLAGHEKAVSYVKFMDSETIVSASTDNSLKLWNLNKTNSSGLSPGACSLTYKGHTNQKNFVGLSVLDGYIACGSETNEVYSYYKSLPMPMTSYKFGSVDPISGNEYFDDNGQFVSSVCWRKKSNMLVAANSTGNMKLLKLV
